Test results: article PMC2728203
No constants are given. Whether binding was seen depends on the method and setting. Where a sequence is shown, tags or fusion partners need not be part of it.

Molecular target: ΔN-Nab2, DBD fusion for two-hybrid (S. cerevisiae)
Test: two-hybrid; EGY48 reporter strain, Nab2 variants as DBD fusions (pEG202), CT-Mlp1 or Gfd1 as AD fusions (pJG4-5), lacZ reporter (blue colour), 30 °C

B1: Gfd1, AD fusion for two-hybrid (protein, UniProt Q04839 1-188)
chain: MPLESIWADAPDEEPIKKQKPSHKRSNNNKKNNNSRWSNESSSNNKKKDSVNKVKNNKGNHESKTKNKIKETLPREKKPPHSQGKISPVSESLAINPFSQKATEISPPPVSPSKMKTTKTQSKQDTASKMKLLKKKIEEQREILQKTHHKNQQQQVLMDFLNDEGSSNWVDDDEEELILQRLKTSLKI
binding: no binding
